Earlier results as cited in patent US8361802B2, “Fluorescent ozone sensor” (University of Pittsburgh—Of the Commonwealth System of …, priority 2009, dated 2013).
At least one structure is not confirmed: it was looked up by name or label, or the drawing left a doubt.

Conditions: in 0.1 N NaOH; cited from earlier work

O=C1OC2(c3ccc(O)cc3Oc3cc(O)ccc32)c2ccccc21 [fluorescein]
quantum yield (Φ) of reference: 0.95
